{"source": "PubChem BioAssay AID1053208 – Peter MacCallum Cancer Centre – 2014", "test": "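Synthetic lethal interactions between gene loss and doxorubicin in osteosarcoma cells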 (primary screen)", "system": "mouse osteosarcoma cells, early-passage culture from an engineered mouse model of fibroblastic bone tumour", "reagent": "siRNA pool against mouse genes, 40 nM", "duration": "about 120 h (48 h before drug, then 72 h with drug)", "treatment": "doxorubicin 100 nM for 72 h, roughly 30-40% inhibitory dose", "measured": "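Viability read as ATP luminescence after 72 h of 100 nM doxorubicin or none, duplicate wells averaged, scaled to non-targeting siRNA, then expressed as robust z-scores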", "direction": "viability z-score with doxorubicin: higher = more viable cells under doxorubicin; viability z-score without drug: higher = more viable cells with knock-down alone", "call rule": "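a pool counts as active when its viability z-score with doxorubicin is -2 or below and its z-score without drug lies between -2 and 2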", "note": "In all, the deposit lists about 17,000 reagents; below is an unselected part. 788 of all reagents (4.7%) were called active. 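Calls rest on z-score classes alone; an extra cut-off of viability at most 70% of control was not applied to them.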 A number with no mark means an inactive call. Further read-outs or replicates are left out here."}
{"target":"Jkamp","combined z-score class":"high cell count without drug only","viability z-score with doxorubicin":-0.22,"viability z-score without drug":2.19}
{"target":"Lgr5","combined z-score class":"no change with or without drug","viability z-score with doxorubicin":-0.67,"viability z-score without drug":1.18}
{"target":"Rexo1","combined z-score class":"low cell count with doxorubicin only (active)","viability z-score with doxorubicin":-2.7,"viability z-score without drug":0.51}
{"target":"Cep290","combined z-score class":"no change with or without drug","viability z-score with doxorubicin":0,"viability z-score without drug":0.51}
{"target":"Or1o4","combined z-score class":"no change with or without drug","viability z-score with doxorubicin":-1.69,"viability z-score without drug":-1.85}
{"target":"B230354K17Rik","combined z-score class":"no change with or without drug","viability z-score with doxorubicin":0,"viability z-score without drug":-0.17}
{"target":"Or52n20","combined z-score class":"no change with or without drug","viability z-score with doxorubicin":0,"viability z-score without drug":-0.17}
{"target":"Tmem165","combined z-score class":"no change with or without drug","viability z-score with doxorubicin":1.12,"viability z-score without drug":0.51}
{"target":"G0s2","combined z-score class":"no change with or without drug","viability z-score with doxorubicin":1.12,"viability z-score without drug":1.18}
{"target":"Ush1g","combined z-score class":"no change with or without drug","viability z-score with doxorubicin":-0.45,"viability z-score without drug":0.51}
{"target":"Col8a1","combined z-score class":"no change with or without drug","viability z-score with doxorubicin":1.57,"viability z-score without drug":0.84}
{"target":"Cldn6","combined z-score class":"no change with or without drug","viability z-score with doxorubicin":-1.01,"viability z-score without drug":1.18}
{"target":"Tmprss15","combined z-score class":"no change with or without drug","viability z-score with doxorubicin":1.24,"viability z-score without drug":-0.51}
{"target":"Clec4d","combined z-score class":"no change with or without drug","viability z-score with doxorubicin":1.57,"viability z-score without drug":-0.84}
{"target":"Scart1","combined z-score class":"no change with or without drug","viability z-score with doxorubicin":-1.35,"viability z-score without drug":1.35}
{"target":"Aqp5","combined z-score class":"low cell count with doxorubicin only (active)","viability z-score with doxorubicin":-2.59,"viability z-score without drug":-0.84}
{"target":"Ganab","combined z-score class":"no change with or without drug","viability z-score with doxorubicin":0.45,"viability z-score without drug":0.17}
{"target":"Rit2","combined z-score class":"no change with or without drug","viability z-score with doxorubicin":1.8,"viability z-score without drug":1.85}
{"target":"Stx19","combined z-score class":"no change with or without drug","viability z-score with doxorubicin":0.9,"viability z-score without drug":0.17}

Records above whose target name starts with R or r:
{"target":"Rexo1","combined z-score class":"low cell count with doxorubicin only (active)","viability z-score with doxorubicin":-2.7,"viability z-score without drug":0.51}
{"target":"Rit2","combined z-score class":"no change with or without drug","viability z-score with doxorubicin":1.8,"viability z-score without drug":1.85}
